PubChem BioAssay AID602196 – INSERM | 2012

- Aim: 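Modifiers of cisplatin sensitivity in A549 cells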
- Cell system: human A549 lung cancer cells
- Reagents: siRNA pair against human genes
- Time to read-out: 48 h transfection before cisplatin; time from cisplatin to read-out not stated
- Challenge: cisplatin at a dose killing half of control-siRNA cells; exact dose and duration not given
- Read-out: 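Shift in cisplatin death relative to control siRNA, from -50 (all cells die) to +50 (no cells die); siRNAs harmful on their own scored 0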
- Direction: two-siRNA summed score (-2 to +2): higher = both siRNAs protect from cisplatin killing; -2 means both sensitise; mean protection from cisplatin (shift in death): higher = protection from cisplatin killing
- Call rule: 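siRNAs harmful alone (LDH or WST-1) get 0; others get +1 for less and -1 for more cisplatin killing; genes are active when the two siRNAs give the same sign, summing to ±2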
- Meaning of the calls: active = both siRNAs shift cisplatin killing the same way; inactive = no consistent shift, or siRNA harmful alone
The deposit covers about 23,000 reagents; shown is a random part of them. Over the whole deposit, 455 (2%) were called active. 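Active includes both protection and sensitisation; some change values fall well beyond the stated -50 to +50 range.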 Unmarked entries are inactive. The numbers tell different reagents against one gene apart. Not all columns of the deposit are shown. Not stated in the record: the amount of reagent.

no.	Gene	reagent no.	two-siRNA summed score (-2 to +2)	mean protection from cisplatin (shift in death) (%)
1	CDCA7	1	0	7.9
2	ANKRD12	1	0	8.5
3	KCNK2	1	0	-5.8
4	LRRCC1	1	0	2.3
5	FNBP1	1	0	5.3
6	CLASP2	1	0	-2.3
7	FCN3	1	-1	-10.9
8	LYPD1	1	1	10.2
9	LOC391661	1	1	15.9
10	KIF20A	1	1	16.4
11	AIFM2	1	1	18.2
12	CEBPD	1	0	7.6
13	LINC03163	1	1	2.1
14	MADCAM1	1	0	3.3
15	COPRS	1	0	13.3
16	TMEM14A	1	1	10
17	MAN1A2	1	0	13.1
18	WASF2	1	1	8.1
19	GGA3	1	-1	-10.1
20	LINC01554	1	0	4.8
21	SLC1A7	1	1	7
22	SNX1	1	0	8.1
23	AASS	1	-1	-13.5
24	PARK7	1	0	-6.3
25	GPR55	1	0	6.4
26	LOC442535	1	0	-0.7
27	SORL1	1	0	-0.1
28	LOC389142	1	0	12.1
29	XDH	1	0	1.1
30	ZNF839P4	1	0	3.6
31	ZNF839P4	2	1	-0.1
32	SPAG6	1	0	4.7
33	LOC344405	1	0	-5.1
34	ZPBP	1	0	17.2
35	CETN1	1	0	12.3
36	LSM8	1	0	-3.6
37	TMOD2	1	1	12.6
38	MICAL3	1	0	-1.1
39	LOC442129	1	0	21.5

Not a retest: entries from further up.
no.	Gene	reagent no.	two-siRNA summed score (-2 to +2)	mean protection from cisplatin (shift in death) (%)
8	LYPD1	1	1	10.2
9	LOC391661	1	1	15.9
10	KIF20A	1	1	16.4
11	AIFM2	1	1	18.2
12	CEBPD	1	0	7.6
13	LINC03163	1	1	2.1
